Here are results for 37 targets from the supplement of paper PMC11006884.

Sequences of proteins named here, by UniProt entry; tags and fusion partners are left off. A change or cut given only in a name is not applied to a line headed by its entry.
UniProt P13667: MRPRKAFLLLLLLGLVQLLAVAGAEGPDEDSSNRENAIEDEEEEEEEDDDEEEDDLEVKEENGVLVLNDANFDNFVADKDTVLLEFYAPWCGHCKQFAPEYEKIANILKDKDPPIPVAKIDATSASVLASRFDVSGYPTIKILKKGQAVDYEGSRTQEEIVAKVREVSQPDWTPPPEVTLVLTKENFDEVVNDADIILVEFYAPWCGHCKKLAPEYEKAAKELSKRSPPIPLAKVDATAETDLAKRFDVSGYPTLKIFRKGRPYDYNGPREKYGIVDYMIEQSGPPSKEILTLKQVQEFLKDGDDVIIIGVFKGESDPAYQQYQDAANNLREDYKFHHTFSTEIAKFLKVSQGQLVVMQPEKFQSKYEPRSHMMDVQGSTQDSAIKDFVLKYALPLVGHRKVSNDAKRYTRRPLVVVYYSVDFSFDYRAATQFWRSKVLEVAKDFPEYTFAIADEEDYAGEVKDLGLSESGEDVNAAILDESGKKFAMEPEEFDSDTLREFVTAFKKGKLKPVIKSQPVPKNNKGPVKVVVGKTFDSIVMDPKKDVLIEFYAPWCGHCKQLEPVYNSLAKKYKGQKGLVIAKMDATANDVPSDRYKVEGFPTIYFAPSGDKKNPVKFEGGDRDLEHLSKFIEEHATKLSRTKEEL
UniProt P09429: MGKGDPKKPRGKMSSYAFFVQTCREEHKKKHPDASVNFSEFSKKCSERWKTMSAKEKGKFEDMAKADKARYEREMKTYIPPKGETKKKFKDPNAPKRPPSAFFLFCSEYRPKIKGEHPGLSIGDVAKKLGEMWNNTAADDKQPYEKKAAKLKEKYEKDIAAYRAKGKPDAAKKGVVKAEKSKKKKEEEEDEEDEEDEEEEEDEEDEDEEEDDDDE
UniProt P14866: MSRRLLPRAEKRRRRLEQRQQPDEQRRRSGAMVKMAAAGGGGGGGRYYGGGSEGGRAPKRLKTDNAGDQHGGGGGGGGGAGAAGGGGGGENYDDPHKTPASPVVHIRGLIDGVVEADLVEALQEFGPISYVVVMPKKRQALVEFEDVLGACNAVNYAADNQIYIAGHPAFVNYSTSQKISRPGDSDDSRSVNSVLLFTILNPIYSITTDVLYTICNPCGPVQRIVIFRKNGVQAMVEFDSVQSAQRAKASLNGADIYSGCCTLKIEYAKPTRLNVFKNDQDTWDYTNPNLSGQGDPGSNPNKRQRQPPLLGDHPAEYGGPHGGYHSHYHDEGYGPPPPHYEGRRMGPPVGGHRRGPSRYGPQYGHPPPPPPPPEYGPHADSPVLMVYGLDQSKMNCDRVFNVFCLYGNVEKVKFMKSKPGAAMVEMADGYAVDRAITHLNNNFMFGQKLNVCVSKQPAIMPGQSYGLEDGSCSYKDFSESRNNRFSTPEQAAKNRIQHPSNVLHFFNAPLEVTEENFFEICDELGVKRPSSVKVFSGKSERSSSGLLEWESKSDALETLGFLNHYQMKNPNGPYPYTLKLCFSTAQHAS
UniProt P11388: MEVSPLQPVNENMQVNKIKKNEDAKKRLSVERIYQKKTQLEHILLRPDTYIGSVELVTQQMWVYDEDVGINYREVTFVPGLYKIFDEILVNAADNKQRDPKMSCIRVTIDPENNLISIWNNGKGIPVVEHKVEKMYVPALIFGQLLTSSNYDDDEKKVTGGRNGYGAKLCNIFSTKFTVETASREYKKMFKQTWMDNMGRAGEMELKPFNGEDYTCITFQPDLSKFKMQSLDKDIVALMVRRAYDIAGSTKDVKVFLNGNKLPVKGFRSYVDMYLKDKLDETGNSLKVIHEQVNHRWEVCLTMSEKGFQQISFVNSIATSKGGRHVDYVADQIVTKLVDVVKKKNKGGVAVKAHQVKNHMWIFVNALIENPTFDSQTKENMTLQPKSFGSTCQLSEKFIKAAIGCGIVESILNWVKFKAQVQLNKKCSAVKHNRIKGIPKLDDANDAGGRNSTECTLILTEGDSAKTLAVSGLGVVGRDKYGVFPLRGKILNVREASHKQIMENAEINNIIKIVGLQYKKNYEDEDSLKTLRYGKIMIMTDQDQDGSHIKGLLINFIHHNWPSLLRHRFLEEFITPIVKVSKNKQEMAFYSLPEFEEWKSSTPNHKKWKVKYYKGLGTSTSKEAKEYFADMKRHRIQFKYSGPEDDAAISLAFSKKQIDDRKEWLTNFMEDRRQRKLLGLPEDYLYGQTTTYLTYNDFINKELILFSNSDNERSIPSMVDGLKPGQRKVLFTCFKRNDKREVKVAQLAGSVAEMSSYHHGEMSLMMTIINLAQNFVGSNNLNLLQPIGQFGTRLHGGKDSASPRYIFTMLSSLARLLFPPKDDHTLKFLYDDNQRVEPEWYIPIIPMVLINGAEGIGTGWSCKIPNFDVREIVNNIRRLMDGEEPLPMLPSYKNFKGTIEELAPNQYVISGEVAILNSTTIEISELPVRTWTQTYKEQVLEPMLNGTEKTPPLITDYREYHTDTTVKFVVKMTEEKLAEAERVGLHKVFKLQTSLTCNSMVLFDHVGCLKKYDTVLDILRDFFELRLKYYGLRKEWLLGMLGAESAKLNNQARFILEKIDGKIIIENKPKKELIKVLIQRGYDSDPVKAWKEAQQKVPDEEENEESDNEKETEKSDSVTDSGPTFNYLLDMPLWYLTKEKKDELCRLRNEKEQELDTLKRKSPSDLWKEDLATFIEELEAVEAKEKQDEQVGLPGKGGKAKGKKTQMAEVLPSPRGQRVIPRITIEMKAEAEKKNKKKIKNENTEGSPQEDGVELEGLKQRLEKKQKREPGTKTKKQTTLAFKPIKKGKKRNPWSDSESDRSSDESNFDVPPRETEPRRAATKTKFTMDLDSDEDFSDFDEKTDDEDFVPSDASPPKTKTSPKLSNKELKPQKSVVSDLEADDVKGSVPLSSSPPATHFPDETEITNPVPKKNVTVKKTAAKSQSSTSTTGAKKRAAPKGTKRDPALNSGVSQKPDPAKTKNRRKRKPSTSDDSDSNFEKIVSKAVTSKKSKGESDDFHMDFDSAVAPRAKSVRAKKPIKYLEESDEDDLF
UniProt P13489: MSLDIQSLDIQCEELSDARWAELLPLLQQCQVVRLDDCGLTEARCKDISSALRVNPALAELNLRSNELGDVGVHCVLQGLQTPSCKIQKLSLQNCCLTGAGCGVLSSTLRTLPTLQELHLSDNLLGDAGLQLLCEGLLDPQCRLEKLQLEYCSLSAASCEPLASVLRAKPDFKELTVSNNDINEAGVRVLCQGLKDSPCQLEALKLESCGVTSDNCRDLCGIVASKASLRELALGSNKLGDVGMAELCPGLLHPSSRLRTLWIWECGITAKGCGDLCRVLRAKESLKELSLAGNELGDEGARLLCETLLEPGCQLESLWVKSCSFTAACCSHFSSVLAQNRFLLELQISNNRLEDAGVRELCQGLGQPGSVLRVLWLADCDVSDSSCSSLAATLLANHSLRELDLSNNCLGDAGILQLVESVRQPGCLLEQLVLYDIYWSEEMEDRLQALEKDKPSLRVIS
UniProt P15924: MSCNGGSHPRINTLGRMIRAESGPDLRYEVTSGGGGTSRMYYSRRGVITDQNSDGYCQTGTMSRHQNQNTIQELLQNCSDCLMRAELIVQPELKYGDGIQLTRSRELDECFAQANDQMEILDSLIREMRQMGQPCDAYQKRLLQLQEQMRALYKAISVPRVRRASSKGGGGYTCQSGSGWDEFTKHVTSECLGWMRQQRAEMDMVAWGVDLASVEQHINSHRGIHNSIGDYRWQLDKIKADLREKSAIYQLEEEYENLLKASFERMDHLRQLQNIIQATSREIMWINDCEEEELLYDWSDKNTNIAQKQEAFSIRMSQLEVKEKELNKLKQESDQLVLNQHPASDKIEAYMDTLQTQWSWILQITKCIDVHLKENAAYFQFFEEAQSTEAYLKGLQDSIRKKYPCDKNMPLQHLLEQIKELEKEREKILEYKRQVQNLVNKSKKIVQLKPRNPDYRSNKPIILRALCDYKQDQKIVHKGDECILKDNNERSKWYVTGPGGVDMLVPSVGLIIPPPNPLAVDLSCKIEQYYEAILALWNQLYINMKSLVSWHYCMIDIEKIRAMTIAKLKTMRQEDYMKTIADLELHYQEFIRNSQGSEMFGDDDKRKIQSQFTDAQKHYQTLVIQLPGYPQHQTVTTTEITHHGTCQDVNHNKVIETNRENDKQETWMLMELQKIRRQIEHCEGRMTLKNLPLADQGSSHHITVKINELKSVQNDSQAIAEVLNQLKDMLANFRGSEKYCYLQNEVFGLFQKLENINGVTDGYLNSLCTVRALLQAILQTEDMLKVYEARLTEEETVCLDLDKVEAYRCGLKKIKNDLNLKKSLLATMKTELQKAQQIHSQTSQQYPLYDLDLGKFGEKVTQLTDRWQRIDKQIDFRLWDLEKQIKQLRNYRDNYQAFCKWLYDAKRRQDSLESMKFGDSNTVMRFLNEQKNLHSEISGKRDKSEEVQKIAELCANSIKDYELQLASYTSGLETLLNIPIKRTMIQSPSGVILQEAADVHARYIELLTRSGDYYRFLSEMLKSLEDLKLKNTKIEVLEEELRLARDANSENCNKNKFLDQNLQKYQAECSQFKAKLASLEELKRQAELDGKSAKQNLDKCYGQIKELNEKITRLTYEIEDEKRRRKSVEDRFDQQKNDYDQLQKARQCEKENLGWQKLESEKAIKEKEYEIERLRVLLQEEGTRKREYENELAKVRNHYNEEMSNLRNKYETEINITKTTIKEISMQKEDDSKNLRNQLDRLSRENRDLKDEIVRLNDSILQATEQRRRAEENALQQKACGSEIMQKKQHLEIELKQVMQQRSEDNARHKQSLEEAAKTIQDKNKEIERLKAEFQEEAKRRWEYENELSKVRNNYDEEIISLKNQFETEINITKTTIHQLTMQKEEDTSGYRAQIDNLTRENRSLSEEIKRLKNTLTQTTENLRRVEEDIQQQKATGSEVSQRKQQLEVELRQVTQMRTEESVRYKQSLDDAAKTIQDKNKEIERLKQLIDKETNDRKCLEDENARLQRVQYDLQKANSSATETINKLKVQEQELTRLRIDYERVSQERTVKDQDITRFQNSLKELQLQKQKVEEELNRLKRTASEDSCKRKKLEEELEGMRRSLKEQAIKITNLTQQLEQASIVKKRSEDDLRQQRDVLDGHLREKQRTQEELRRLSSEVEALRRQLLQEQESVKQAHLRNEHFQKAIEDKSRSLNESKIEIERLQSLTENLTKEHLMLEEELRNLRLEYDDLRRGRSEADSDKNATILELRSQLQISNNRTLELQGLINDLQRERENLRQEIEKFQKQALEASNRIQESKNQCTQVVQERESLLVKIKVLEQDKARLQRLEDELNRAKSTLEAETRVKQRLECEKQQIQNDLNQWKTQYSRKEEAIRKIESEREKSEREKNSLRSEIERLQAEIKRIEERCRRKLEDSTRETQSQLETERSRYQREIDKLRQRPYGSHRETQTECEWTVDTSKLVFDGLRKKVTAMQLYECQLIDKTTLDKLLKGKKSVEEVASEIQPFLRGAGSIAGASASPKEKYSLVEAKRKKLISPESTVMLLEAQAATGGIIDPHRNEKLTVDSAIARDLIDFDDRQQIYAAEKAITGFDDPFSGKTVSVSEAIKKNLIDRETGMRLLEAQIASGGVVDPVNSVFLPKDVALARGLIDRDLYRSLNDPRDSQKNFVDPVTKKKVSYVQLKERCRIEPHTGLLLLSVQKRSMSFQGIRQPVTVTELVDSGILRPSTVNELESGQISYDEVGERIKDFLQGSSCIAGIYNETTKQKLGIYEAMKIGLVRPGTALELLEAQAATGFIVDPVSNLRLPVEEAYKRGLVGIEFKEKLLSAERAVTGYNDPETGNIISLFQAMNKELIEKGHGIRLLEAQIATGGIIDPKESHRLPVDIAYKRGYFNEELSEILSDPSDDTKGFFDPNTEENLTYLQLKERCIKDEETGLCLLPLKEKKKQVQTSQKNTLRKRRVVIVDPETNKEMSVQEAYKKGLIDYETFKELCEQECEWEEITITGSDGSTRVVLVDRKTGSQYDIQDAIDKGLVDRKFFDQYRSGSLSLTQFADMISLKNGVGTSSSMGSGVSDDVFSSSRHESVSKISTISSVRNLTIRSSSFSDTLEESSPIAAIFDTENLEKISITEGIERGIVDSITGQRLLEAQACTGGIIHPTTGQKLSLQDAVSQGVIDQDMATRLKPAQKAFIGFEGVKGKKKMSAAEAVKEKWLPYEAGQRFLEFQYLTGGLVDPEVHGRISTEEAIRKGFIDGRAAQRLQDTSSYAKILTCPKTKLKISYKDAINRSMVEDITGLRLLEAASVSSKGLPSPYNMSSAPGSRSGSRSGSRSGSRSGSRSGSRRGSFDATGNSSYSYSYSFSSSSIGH
UniProt P16152: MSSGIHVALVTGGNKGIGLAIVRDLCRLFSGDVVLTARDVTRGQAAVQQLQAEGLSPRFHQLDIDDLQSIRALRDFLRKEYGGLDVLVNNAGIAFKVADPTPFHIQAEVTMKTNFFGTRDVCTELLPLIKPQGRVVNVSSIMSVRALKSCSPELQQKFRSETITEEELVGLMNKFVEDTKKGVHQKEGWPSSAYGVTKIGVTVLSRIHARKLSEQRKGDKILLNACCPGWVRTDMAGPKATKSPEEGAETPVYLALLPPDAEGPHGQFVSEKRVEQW

The targets with a hit were mostly taken out for another list; the other results follow. The data scatter; read single values as rough. The list shows a part of the results, in another mix than the full data.

Compound in this test: COC(=O)/C=C/c1ccccc1 [methyl cinnamate]
Nature of the test: log2 ratio of iodoacetamide-alkyne labeling of the cysteine site, DMSO over compound (competition); higher = stronger covalent engagement of the cysteine by the compound, active = 1 or more. The following applies: 500 µM; treatment time 1 h; system: HEK293T cell lysate. The essentials: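 After 1 h at ambient temperature with vehicle or electrophile (500 µM), HEK293T lysate (2 mg/mL) was labelled for 1 h with iodoacetamide alkyne and clicked to sCIP-TMT reagents. Pooled samples were trypsin-digested overnight at 37 °C, streptavidin-enriched, acid-eluted and analysed by Orbitrap Eclipse LC-MS/MS with FAIMS, then quantified in FragPipe over three replicates with duplicate channels. A cysteine's log2 competition ratio is its mean control-channel over mean compound-channel reporter intensity. Cysteines quantified in only one replicate were not included.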
Turning to UniProt P0DMV8_C17, the “log2 ratio of iodoacetamide-alkyne labeling” value (from here on “log2 ratio”) was inactive: 0.0864.

PDIA4 C209 (UniProt P13667): the “log2 ratio” value is inactive: 0.557.

On to HMGB1 C23 (UniProt P09429), for which the “log2 ratio” value was inactive: 0.0879.

With EEF2 C751 (UniProt P13639), the “log2 ratio” value was inactive: 0.0624.

Turning to HNRNPL C452 (UniProt P14866), the “log2 ratio” value is inactive: 0.161.

UniProt P07947_C42: the “log2 ratio” value was inactive: 0.427.

For the target HNRNPL C261 (UniProt P14866), the “log2 ratio” value is inactive: -0.317.

UniProt P14618_C31: the “log2 ratio” value is inactive: -0.176.

Regarding PCNA C81 (UniProt P12004), the “log2 ratio” value was inactive: 0.131.

Take DDX5 C170 (UniProt P17844): the “log2 ratio” value is inactive: 0.109.

Consider UniProt P10155_C38, for which the “log2 ratio” value was inactive: 0.357.

Consider TOP2A C216 (UniProt P11388), for which the “log2 ratio” value was inactive: 0.124.

Turning to EPRS C744 (UniProt P07814), the “log2 ratio” value was inactive: 0.257.

In the case of RNH1 C75 (UniProt P13489), the “log2 ratio” value is inactive: 0.155.

As for DSP C1855 (UniProt P15924), the “log2 ratio” value is inactive: 0.459.

For the target RNH1 C409 (UniProt P13489), the “log2 ratio” value is inactive: 0.125.

Consider ANXA6 C248 (UniProt P08133), for which the “log2 ratio” value is inactive: 0.139.

For the target EZR C117 (UniProt P15311), the “log2 ratio” value is inactive: 0.32.

In the case of GTF2F2 C116 (UniProt P13984), the “log2 ratio” value was inactive: 0.29.

As to IGF2R C2232 (UniProt P11717), the “log2 ratio” value is inactive: 0.42.

Turning to UniProt P14618_C423, the “log2 ratio” value was inactive: 0.0924.

Consider ALAS1 C249 (UniProt P13196), for which the “log2 ratio” value is inactive: 0.235.

As to DSP C899 (UniProt P15924), the “log2 ratio” value is inactive: 0.287.

For the target IMPDH2 C468 (UniProt P12268), the “log2 ratio” value was inactive: 0.0596.

Consider MTHFD1 C147 (UniProt P11586), for which the “log2 ratio” value is inactive: 0.1.

On to DSP C57 (UniProt P15924), for which the “log2 ratio” value is inactive: 0.298.

In the case of RNH1 C45 (UniProt P13489), the “log2 ratio” value is inactive: -0.0228.

Take PEPD C482 (UniProt P12955): the “log2 ratio” value is inactive: 0.14.

For CKMT1A C62 (UniProt P12532), the “log2 ratio” value is inactive: 0.228.

Consider EEF2 C651 (UniProt P13639), for which the “log2 ratio” value is inactive: 0.169.

For the target ATP2A2 C560 (UniProt P16615), the “log2 ratio” value was inactive: 0.00044.

For the target HSP90B1 C645 (UniProt P14625), the “log2 ratio” value was inactive: 0.0462.

On to UniProt P0DN79_C244, for which the “log2 ratio” value is inactive: 0.281.

On to TPR C75 (UniProt P12270), for which the “log2 ratio” value was inactive: 0.336.

For CBR1 C122 (UniProt P16152), the “log2 ratio” value was inactive: 0.0472.

Consider DARS C349 (UniProt P14868), for which the “log2 ratio” value was inactive: -0.0649.

Consider DSP C1069 (UniProt P15924), for which the “log2 ratio” value is inactive: 0.412.
